From PubChem BioAssay AID192 (DTP/NCI, 2004)
The list does not hold the whole screen: it gathers some chemical classes. Not every dose and run of a compound is shown. T/C gives the treated animals as a percentage of the vehicle group. Some doses have a count of surviving animals in place of a T/C: the source holds a T/C of zero for them, seemingly a mark for toxic or unscored doses. Some doses without a T/C left all or most animals alive at the check, yet need not have been tolerated: the source hardly ever lists a survival T/C far under the control, and the zero likely stands for such cases as well. Counts of survivors are from the toxicity check (mostly the fifth day) where no day follows; animals may have died later. Schedule codes are those of the source, taken here to give the interval after Q, in days (D) or hours (H), and the number of doses after X. For survival time, the PubChem record calls one and a half times the control and up active, and a quarter to a half above the control has no call in these data; cut-offs in other NCI protocols can differ. Some doses were run more than once; the results are listed from low to high. Some entries show no survivor count and are marked so; the dose need not have been tolerated.

System: BDF1 mice, B16 melanoma ip, median survival T/C
Experiment: NCI In Vivo Anticancer Drug Screen. Data for tumor model B16 Melanoma (intraperitoneal) in B6D2F1 (BDF1) mice
Conditions: T/C endpoint: median survival time, higher T/C = longer survival
Experimental: The antitumor activity of compounds was measured in mice bearing transplantable tumors. Survival or tumor size were measured and the results are expressed as the measurement made in the treated group (T) divided by the measurement made in the vehicle treated control group (C). The tumor model used in this assay is B16 Melanoma (intraperitoneal) in B6D2F1 (BDF1) mice

[1] = dose: 1.56 mg/kg/injection, schedule: Q01DX009 (ip), vehicle: Klucel (hydroxypropylcellulose) (HPC)
[2] = dose: 3.12 mg/kg/injection, schedule: Q01DX009 (ip), vehicle: Klucel (hydroxypropylcellulose) (HPC)
[3] = dose: 25.0 mg/kg/injection, schedule: Q04DX003 (ip), vehicle: saline
[4] = dose: 50.0 mg/kg/injection, schedule: Q04DX003 (ip), vehicle: saline

With `COc1ccc(N(CCCl)CCCl)cc1` the T/C [1] was 108 % of control [survivor count not shown], the T/C (dose: 3.13 mg/kg/injection, schedule: Q01DX009 (ip), vehicle: Klucel (hydroxypropylcellulose) (HPC), evaluated on day 60) was 110 % of control and the T/C (dose: 3.13 mg/kg/injection, schedule: Q01DX009 (ip), vehicle: Klucel (hydroxypropylcellulose) (HPC), evaluation day not shown) was 101 % of control [survivor count not shown]. The T/C (dose: 6.25 mg/kg/injection, schedule: Q01DX009 (ip), vehicle: Klucel (hydroxypropylcellulose) (HPC), evaluated on day 60) was 129 and 142 % of control, the T/C (dose: 6.25 mg/kg/injection, schedule: Q01DX009 (ip), vehicle: Klucel (hydroxypropylcellulose) (HPC), evaluation day not shown) was 110 % of control [survivor count not shown] and the T/C (dose: 12.5 mg/kg/injection, schedule: Q01DX009 (ip), vehicle: Klucel (hydroxypropylcellulose) (HPC), evaluated on day 60) was 140 and 150 % of control. For the same compound, the T/C (dose: 12.5 mg/kg/injection, schedule: Q01DX009 (ip), vehicle: Klucel (hydroxypropylcellulose) (HPC), evaluation day not shown) was 131 % of control [survivor count not shown], the T/C (dose: 25.0 mg/kg/injection, schedule: Q01DX009 (ip), vehicle: Klucel (hydroxypropylcellulose) (HPC), evaluated on day 60) was 99 and 183 % of control and the T/C (dose: 25.0 mg/kg/injection, schedule: Q01DX009 (ip), vehicle: Klucel (hydroxypropylcellulose) (HPC), evaluation day not shown) was 163 % of control [survivor count not shown]. For the same compound, the survivor count (dose: 50.0 mg/kg/injection, schedule: Q01DX009 (ip), vehicle: Klucel (hydroxypropylcellulose) (HPC)) was 10 of 10.

For `CC1=CC(=O)C(N(CCCl)CCCl)=CC1=O`, the T/C (dose: 0.19 mg/kg/injection, schedule: Q01DX009 (ip), vehicle: Klucel (hydroxypropylcellulose) (HPC)) was 116 % of control, the T/C (dose: 0.39 mg/kg/injection, schedule: Q01DX009 (ip), vehicle: Klucel (hydroxypropylcellulose) (HPC), evaluated on day 60) was 120 % of control and the T/C (dose: 0.39 mg/kg/injection, schedule: Q01DX009 (ip), vehicle: Klucel (hydroxypropylcellulose) (HPC), evaluation day not shown) was 113 % of control [survivor count not shown]. For the same compound, the T/C (dose: 0.78 mg/kg/injection, schedule: Q01DX009 (ip), vehicle: Klucel (hydroxypropylcellulose) (HPC), evaluated on day 60) was 135 % of control, the T/C (dose: 0.78 mg/kg/injection, schedule: Q01DX009 (ip), vehicle: Klucel (hydroxypropylcellulose) (HPC), evaluation day not shown) was 139 % of control [survivor count not shown] and the T/C (dose: 1.56 mg/kg/injection, schedule: Q01DX009 (ip), vehicle: Klucel (hydroxypropylcellulose) (HPC), evaluated on day 60) was 153 % of control. For the same compound, the T/C (dose: 1.56 mg/kg/injection, schedule: Q01DX009 (ip), vehicle: Klucel (hydroxypropylcellulose) (HPC), evaluation day not shown) was 143 [survivor count not shown], 179 [survivor count not shown], 208 % of control [survivor count not shown], the T/C [2] was 162 % of control and the T/C (dose: 3.13 mg/kg/injection, schedule: Q01DX009 (ip), vehicle: Klucel (hydroxypropylcellulose) (HPC)) was 95 [survivor count not shown] and 187 % of control [survivor count not shown].

In the case of `CCCCN(CCCl)CCCC`, the T/C (dose: 12.5 mg/kg/injection, schedule: Q01DX009 (ip), vehicle: saline) is reported as 97 % of control [survivor count not shown], the T/C (dose: 12.5 mg/kg/injection, schedule: Q04DX003 (ip), vehicle: saline) is reported as 110 % of control [survivor count not shown] and the T/C [3] is reported as 105 % of control [survivor count not shown]. For the same compound, the T/C [4] was 112 % of control [survivor count not shown].

For `O=C(CCN(CCCl)CCCl)c1cccc([N+](=O)[O-])c1`, the T/C (dose: 3.0 mg/kg/injection, schedule: Q01DX009 (ip), vehicle: Klucel (hydroxypropylcellulose) (HPC)) was 144 % of control [survivor count not shown] and the T/C (dose: 6.0 mg/kg/injection, schedule: Q01DX009 (ip), vehicle: Klucel (hydroxypropylcellulose) (HPC)) was 144 % of control [survivor count not shown].

With `O=S=NN(CCCl)CCCl` the T/C (dose: 0.3 mg/kg/injection, schedule: Q01DX009 (ip), vehicle: saline) was 102 % of control [survivor count not shown], the T/C (dose: 0.63 mg/kg/injection, schedule: Q01DX009 (ip), vehicle: saline) was 97 % of control [survivor count not shown] and the T/C (dose: 1.25 mg/kg/injection, schedule: Q01DX009 (ip), vehicle: saline) was 102 % of control [survivor count not shown]. The T/C (dose: 2.5 mg/kg/injection, schedule: Q01DX009 (ip), vehicle: saline) was 111 % of control [survivor count not shown] and the T/C (dose: 5.0 mg/kg/injection, schedule: Q01DX009 (ip), vehicle: saline) was 120 % of control [survivor count not shown].

`CC(Cl)CNCC(C)Cl` (stereo not given) was tested, and the T/C (dose: 25.0 mg/kg/injection, schedule: Q01DX009 (ip), vehicle: saline) was 106 % of control [survivor count not shown], the T/C [3] was 94 % of control [survivor count not shown] and the T/C (dose: 50.0 mg/kg/injection, schedule: Q01DX009 (ip), vehicle: saline) was 120 % of control [survivor count not shown]. For the same compound, the T/C [4] was 115 % of control [survivor count not shown].

`Cc1ccc(C(=O)O)cc1N(CCCl)CCCl` was tested, and the T/C [1] was 95 [survivor count not shown] and 108 % of control [survivor count not shown], the T/C [2] was 97 [survivor count not shown] and 127 % of control [survivor count not shown] and the T/C (dose: 6.25 mg/kg/injection, schedule: Q01DX009 (ip), vehicle: Klucel (hydroxypropylcellulose) (HPC)) was 104 [survivor count not shown] and 160 % of control [survivor count not shown]. The T/C (dose: 12.5 mg/kg/injection, schedule: Q01DX009 (ip), vehicle: Klucel (hydroxypropylcellulose) (HPC)) was 120 [survivor count not shown] and 158 % of control [survivor count not shown] and the T/C (dose: 25.0 mg/kg/injection, schedule: Q01DX009 (ip), vehicle: Klucel (hydroxypropylcellulose) (HPC)) was 175 % of control [survivor count not shown].

With `NC1CCCCC1.NP(=O)(O)N(CCCl)CCCl` the T/C (dose: 6.25 mg/kg/injection, schedule: Q01DX009 (ip), vehicle: water) was 137 % of control [survivor count not shown], the T/C (dose: 12.5 mg/kg/injection, schedule: Q01DX009 (ip), vehicle: water) was 156 % of control [survivor count not shown] and the T/C (dose: 25.0 mg/kg/injection, schedule: Q01DX001 (ip), vehicle: water) was 121 % of control [survivor count not shown]. For the same compound, the T/C (dose: 25.0 mg/kg/injection, schedule: Q01DX009 (ip), vehicle: water) was 182 % of control [survivor count not shown], the T/C (dose: 25.0 mg/kg/injection, schedule: Q04DX003 (ip), vehicle: water) was 184 % of control [survivor count not shown] and the T/C (dose: 25.0 mg/kg/injection, schedule: Q08DX002 (ip), vehicle: water) was 147 % of control [survivor count not shown]. For the same compound, the T/C (dose: 50.0 mg/kg/injection, schedule: Q01DX001 (ip), vehicle: water) was 126 % of control [survivor count not shown], the T/C (dose: 50.0 mg/kg/injection, schedule: Q04DX003 (ip), vehicle: water) was 155 % of control [survivor count not shown] and the T/C (dose: 50.0 mg/kg/injection, schedule: Q08DX002 (ip), vehicle: water) was 167 % of control [survivor count not shown]. The T/C (dose: 100.0 mg/kg/injection, schedule: Q01DX001 (ip), vehicle: water) was 144 % of control [survivor count not shown] and the T/C (dose: 100.0 mg/kg/injection, schedule: Q08DX002 (ip), vehicle: water) was 231 % of control [survivor count not shown].
